Screening data, single-dose tests

The values are deposited in ChEMBL (CHEMBL3988442, “University of Dundee, Small-Polar-MMV Screening Library” (2021)).

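Phenotypic screen: M. tuberculosis growth, glucose 7H9 medium, 3 days; the read-out is not stated. Concentration: 500 µM. Higher reads as more growth inhibition (inferred: compounds with an IC50 in retests scored well above the rest). About 18,000 compounds were tested under these conditions; 7.9% (about 1,400) showed 50% or more at least once.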

Each number is a percent effect as filed. How 0% and 100% were set is not recorded. Most values in the screen are low, and negative values occur. This is an unselected part of the compounds tested.

Compound	Percent Effect
Cc1ncncc1C(=O)NCC(C)(C)CN(C)C	-4.047
Cc1ccc(CN)nc1	45.52
Cc1cc(NC(C)CN2CCOCC2)ncc1Br (stereo unspecified)	54.82
CC1(C)C(=O)NCCN1C(=O)c1cccc2cc[nH]c12	8.93
O=C(NCCc1ccccn1)Nc1cn[nH]c1	9.512
COC(=O)[C@H](C)NC(=O)c1csc(-c2cnccn2)n1	1.895
O=C(NC1=NCCS1)c1cc2cc(F)ccc2s1	31.86
N#CC1(CO)CCN(Cc2ccccc2)CC1	15.86
N#CC1(NC(=O)CCSc2ccccn2)CCC1	25.87
CC(C)COC(C)C(=O)NCc1nnc2ccccn12 (stereo unspecified)	3.567
Fc1cccc(-c2noc(C3CCCN3)n2)c1 (stereo unspecified)	64.2
O=C(CN1CSCC1=O)NCCC1=CCCCC1	21.45
OCc1nc(N2CCSCC2)c2ccccc2n1	8.148
CCN1CCc2nc(NC(=O)c3ccncc3)sc2C1	-15.31
CC(C)C(C)(C#N)NC(=O)CN1CCCCC1 (stereo unspecified)	3.343
CCOc1cc(-c2nnn(C)n2)ccc1OC	-1.009
CCN(CC)C(=O)[C@@H]1C[C@@H](N)CN1C(=O)CS(C)(=O)=O	-13.12
Cc1c(Cl)cccc1NC(=O)N[C@@H]1CNCC[C@H]1O	17.8
CC(Sc1nnc[nH]1)C(=O)Nc1ccc(C#N)cc1 (stereo unspecified)	50.35
CCOCCN(c1ccccc1F)S(C)(=O)=O	-5.008
CC(C)C(=O)Nc1cccc(CN)c1	5.143
O=C(c1ccc(Cn2ccnn2)cc1)N1CCCC1	4.785
COc1ccc([C@H]2C[C@H](N)C2)cc1F	61.75
CN(C)c1nccc(N(C)CCn2cccn2)n1	2.626
O=S(=O)(c1ccc2c(c1)CCCN2)N1CCCC1	45.77
CN(C)c1noc(C2CCCN2)n1 (stereo unspecified)	-4.582
COc1ccc(Cl)c(S(=O)(=O)NC2CNC2)c1	10.44
CO[C@H]1CNCC1NC(=O)c1sc(C)nc1C (stereo partly specified)	-19.08
Cn1ccc(NC(=O)c2ccnn2C)n1	18.42
CNCC(=O)Nc1cc(Cl)c(OCCOC)c(Cl)c1	54.01
Cc1csc(CCNC(=O)C(C)n2cccn2)n1 (stereo unspecified)	18.39
CNCCN(C)C1CCN(C)CC1	-1.798
COc1ccnc(CN)c1	10.9
CCNC(=O)N(C)Cc1cccnc1OCC	21.08
Cc1cc(CN2CCC(Oc3cccnc3)CC2)on1	52.1
O=C(NCCN1CCCCC1)NC1CCS(=O)(=O)C1 (stereo unspecified)	5.048
COc1cccc(NC(=O)Cn2cncn2)c1	-13.43
CC(C)=CCOC(=O)c1ccc(C(N)=O)nc1	-13.15
CCN1CC2(CCN(Cc3ncc[nH]3)CC2)OC1=O	-7.912
CN(Cc1nc2ccccc2[nH]1)C(=O)c1cnc[nH]1	14.4
CCC1CN(Cc2ccccc2OCCO)CCO1 (stereo unspecified)	2.293
NC(=O)C1(NCCSCc2ccccc2)CC1	7.694
COc1ccc(Cl)cc1-n1c(CCN)n[nH]c1=O	12.69
O=C(Cn1cccnc1=O)N1CCCC1c1cccs1 (stereo unspecified)	-5.427
NS(=O)(=O)CCC(F)(F)F	3.893
CC1(C)C[S+]([O-])CCN1C(=O)c1cccc(F)c1Cl (stereo unspecified)	28.66
CCC(C)NC(=O)NCc1ccc(-n2ccnc2)nc1 (stereo unspecified)	21.37
Cc1ccc(C(=O)NCc2ccccc2CO)c(=O)[nH]1	-6.283
COC(=O)CC1CSCCN1Cc1cnn(C)c1 (stereo unspecified)	4.666
CCN1CCC(CCNC(=O)c2ccccn2)CC1	3.812
CNC(=O)N(C)C(C)C1CCN(C)CC1 (stereo unspecified)	-1.691
CN(Cc1ccccc1)C(=O)c1cccnc1O	-11.39
COCc1cc(CNC(=O)C(NC(C)=O)C(C)C)n[nH]1 (stereo unspecified)	5.382
COc1ccc(N2C(=O)C=CC2=O)cc1OC	7.233
CC(C)CS(=O)(=O)CCNC(=O)c1ccc(=O)n(C)n1	10.92

Repeated from the top, 7 entries:

- Cc1ncncc1C(=O)NCC(C)(C)CN(C)C | -4.047%
- Cc1ccc(CN)nc1 | 45.52%
- Cc1cc(NC(C)CN2CCOCC2)ncc1Br (stereo unspecified) | 54.82%
- CC1(C)C(=O)NCCN1C(=O)c1cccc2cc[nH]c12 | 8.93%
- O=C(NCCc1ccccn1)Nc1cn[nH]c1 | 9.512%
- COC(=O)[C@H](C)NC(=O)c1csc(-c2cnccn2)n1 | 1.895%
- O=C(NC1=NCCS1)c1cc2cc(F)ccc2s1 | 31.86%